Binding data for one molecule are collected here from US20240400675A1.

Protein sequences, listed by entry. Tags and fused reporters are not part of them. Lines headed by an entry give the natural chain unless they say otherwise; changes in a name come on top.
UniProt P56747: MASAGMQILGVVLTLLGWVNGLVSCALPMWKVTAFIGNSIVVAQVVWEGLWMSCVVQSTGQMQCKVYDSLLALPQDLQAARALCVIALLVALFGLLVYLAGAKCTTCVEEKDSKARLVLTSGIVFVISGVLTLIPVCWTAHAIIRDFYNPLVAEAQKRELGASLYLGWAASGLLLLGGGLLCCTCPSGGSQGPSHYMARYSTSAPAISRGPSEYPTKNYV

These are yes or no findings as the source states them, for the method shown. Some entries that bind do so weakly or less than the wild type.

This test addresses human CLDN6 (human) (UniProt P56747). Put plainly: flow cytometry on HEK293E cells expressing CLDN6. (In general: Flow cytometry measures light scatter and fluorescence of single cells or particles in a stream.)

B1: XENP36956 (antibody, V domains shown)
VH: QVQLVQSGAEVKKPGASVKVSCKTSGYTFTEYTMHWVRQAPGQSLEWMGGIDPNNGNTHYNQKFQGRVTITVDKSASTAYMELSSLRSEDTAVYYCARILYFGRLYFDFWGAGTLVTVSS
VL: DIQMTQSPSSLSASVGDRVTITCQASEDIYNRLAWYQQKPGKVPKLLISGATSLETGVPSRFSGSGSGKDYTFTISSLQPEDIATYYCQQYWSAPLTFGGGTKVEIKR
Consider B1, for which the binding result was “binds”.
